The record followed here is doi:10.1101/789909 (bioRxiv, 2019).

Sequences of proteins named here, by UniProt entry; tags and fusion partners are left off.
UniProt P69853, whole entry: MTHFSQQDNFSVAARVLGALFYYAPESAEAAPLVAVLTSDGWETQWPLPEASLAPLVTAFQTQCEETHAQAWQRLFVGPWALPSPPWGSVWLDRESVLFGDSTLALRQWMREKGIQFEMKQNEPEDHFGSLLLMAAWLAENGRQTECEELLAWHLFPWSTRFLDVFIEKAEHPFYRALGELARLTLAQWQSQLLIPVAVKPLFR

Results are given in words; binding and its absence hold for the method and conditions named. Binding seen in cells or lysates may run through a third protein. Some results given as binding are weak or reduced against the parent protein; the word gives no strength. Sequences can lack the tags named with a protein.

The assay has as its target DmsD with 6xHis tag (E. coli) (UniProt P69853). The assay can be described thus: pull-down.

B1: EcTatBC without 6xHis tag (complex of TatB and TatC) (complex, UniProt P69425 1-171; P69423 1-258)
chain 1: MFDIGFSELLLVFIIGLVVLGPQRLPVAVKTVAGWIRALRSLATTVQNELTQELKLQEFQDSLKKVEKASLTNLTPELKASMDELRQAAESMKRSYVANDPEKASDEAHTIHNPVVKDNEAAHEGVTPAAAQTQASSPEQKPETTPEPVVKPAADAEPKTAAPSPSSSDKP
chain 2: MSVEDTQPLITHLIELRKRLLNCIIAVIVIFLCLVYFANDIYHLVSAPLIKQLPQGSTMIATDVASPFFTPIKLTFMVSLILSAPVILYQVWAFIAPALYKHERRLVVPLLVSSSLLFYIGMAFAYFVVFPLAFGFLANTAPEGVQVSTDIASYLSFVMALFMAFGVSFEVPVAIVLLCWMGITSPEDLRKKRPYVLVGAFVVGMLLTPPDVFSQTLLAIPMYCLFEIGVFFSRFYVGKGRNREEENDAEAESEKTEE
Take B1: the binding entry is “binds”.
